No constants are given. Whether binding was seen depends on the method and setting. Binding seen in cells or lysates may run through a third protein. Some entries that bind do so weakly or less than the wild type.
Biological target: T1, Interferon regulatory factor 7 (mouse (endogenous in BV2)) (UniProt P70434)
T1 sequence: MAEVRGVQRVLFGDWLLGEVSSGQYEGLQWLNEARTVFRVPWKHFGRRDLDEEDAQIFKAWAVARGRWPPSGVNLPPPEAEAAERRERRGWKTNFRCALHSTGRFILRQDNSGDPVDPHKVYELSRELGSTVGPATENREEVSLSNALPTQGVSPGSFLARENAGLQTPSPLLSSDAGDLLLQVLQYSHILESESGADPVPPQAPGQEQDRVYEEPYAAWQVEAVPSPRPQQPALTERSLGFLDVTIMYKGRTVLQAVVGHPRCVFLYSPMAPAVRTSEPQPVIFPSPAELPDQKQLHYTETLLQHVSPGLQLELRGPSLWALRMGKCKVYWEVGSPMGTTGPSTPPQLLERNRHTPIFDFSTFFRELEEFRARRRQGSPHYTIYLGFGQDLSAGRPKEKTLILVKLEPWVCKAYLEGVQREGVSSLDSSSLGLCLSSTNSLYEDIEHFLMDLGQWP
Experiment: co-IP; lysate of E50K-BV2 cells; anti-IRF7 antibody (rabbit IgG as control) on Protein A/G magnetic beads, 4°C for 2 h, washed three times with PBST; Western blot for NLRP3

Chains of the proteins cited; added tags and fusions are not shown.
UniProt Q8R4B8: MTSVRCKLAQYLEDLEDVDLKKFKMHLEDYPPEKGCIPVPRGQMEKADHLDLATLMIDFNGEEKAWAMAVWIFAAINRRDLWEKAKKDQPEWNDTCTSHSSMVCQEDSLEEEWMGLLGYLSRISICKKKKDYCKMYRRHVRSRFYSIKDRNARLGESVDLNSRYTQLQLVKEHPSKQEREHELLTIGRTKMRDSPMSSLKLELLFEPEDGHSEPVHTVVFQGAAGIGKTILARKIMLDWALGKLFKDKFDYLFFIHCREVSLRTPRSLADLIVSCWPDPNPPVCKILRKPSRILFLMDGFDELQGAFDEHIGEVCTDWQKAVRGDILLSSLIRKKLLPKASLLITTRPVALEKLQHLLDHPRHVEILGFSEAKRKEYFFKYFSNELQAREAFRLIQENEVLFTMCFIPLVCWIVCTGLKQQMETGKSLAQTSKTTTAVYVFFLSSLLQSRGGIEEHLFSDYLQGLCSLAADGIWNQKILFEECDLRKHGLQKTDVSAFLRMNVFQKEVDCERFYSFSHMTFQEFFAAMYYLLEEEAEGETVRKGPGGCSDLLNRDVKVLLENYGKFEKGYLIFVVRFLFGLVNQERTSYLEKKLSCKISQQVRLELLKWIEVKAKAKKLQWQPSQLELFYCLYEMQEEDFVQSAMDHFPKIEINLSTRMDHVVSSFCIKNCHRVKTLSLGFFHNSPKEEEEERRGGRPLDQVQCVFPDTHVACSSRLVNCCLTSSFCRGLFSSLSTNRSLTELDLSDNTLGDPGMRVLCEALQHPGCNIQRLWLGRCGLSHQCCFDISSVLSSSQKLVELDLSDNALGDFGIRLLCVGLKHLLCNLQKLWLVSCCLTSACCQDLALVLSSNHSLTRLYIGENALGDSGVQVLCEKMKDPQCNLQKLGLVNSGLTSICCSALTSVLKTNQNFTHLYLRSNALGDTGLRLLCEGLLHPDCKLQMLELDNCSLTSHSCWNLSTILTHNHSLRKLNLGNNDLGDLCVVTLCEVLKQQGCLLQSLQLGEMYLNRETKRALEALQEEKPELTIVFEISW

Substance: NOD-like Receptor Protein 3 (from UniProt Q8R4B8 1-1033)
- binding: binds

Reference: article PMC12832388
